In publication PMC6599030:
These are yes or no findings as the source states them, for the method shown. Binding seen in cells or lysates may run through a third protein. Some results given as binding are weak or reduced against the parent protein; the word gives no strength.

Protein sequences, listed by entry. Tags and fused reporters are not part of them.
UniProt Q15836: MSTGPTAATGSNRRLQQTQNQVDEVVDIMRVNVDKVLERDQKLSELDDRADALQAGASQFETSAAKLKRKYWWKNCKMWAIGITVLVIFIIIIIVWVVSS

Target: GFP-VAMP3 (UniProt Q15836)
Test: co-IP; GFP-trap magnetic beads on lysates of stable hTERT-RPE1 cells expressing GFP-VAMP3 with mCherry-WDFY2, or mCherry-WDFY2 cells transfected with pEGFP-N2 as control; western blotting, 5% input

- binding: binds
B1: mCherry-WDFY2 (protein, UniProt Q96P53 1-400)
chain: MAAEIQPKPLTRKPILLQRMEGSQEVVNMAVIVPKEEGVISVSEDRTVRVWLKRDSGQYWPSVYHAMPSPCSCMSFNPETRRLSIGLDNGTISEFILSEDYNKMTPVKNYQAHQSRVTMILFVLELEWVLSTGQDKQFAWHCSESGQRLGGYRTSAVASGLQFDVETRHVFIGDHSGQVTILKLEQENCTLVTTFRGHTGGVTALCWDPVQRVLFSGSSDHSVIMWDIGGRKGTAIELQGHNDRVQALSYAQHTRQLISCGGDGGIVVWNMDVERQETPEWLDSDSCQKCDQPFFWNFKQMWDSKKIGLRQHHCRKCGKAVCGKCSSKRSSIPLMGFEFEVRVCDSCHEAITDEERAPTATFHDSKHNIVHVHFDATRGWLLTSGTDKVIKLWDMTPVVS
